{"source": "the supplement of paper PMC9135407", "tested_on": "primary human hepatic stellate cells (donor 1)", "experiment": "percent Bodipy-positive cells; higher = more lipid droplet accumulation", "conditions": "48 h", "key": {"[1]": {"conditions": "library stock concentration: 80 uM"}, "[2]": {"conditions": "library stock concentration: 400 uM"}, "[3]": {"conditions": "library stock concentration: 2 mM"}, "[4]": {"conditions": "library stock concentration: 10 mM"}, "[5]": {"conditions": "library stock concentration: 1 mM"}, "[6]": {"conditions": "library stock concentration: 3.33 mM"}}, "note": "Several values for one entry are separate records, joined by “and”; a condition that tells them apart may be missing. Equal values may be shown once. Where a name gives a salt, the structure may show the parent alone. ± gives the standard deviation of the averaged measurements. The list shows a part of the results. Baselines shift from plate to plate; read single values as rough.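 Primary human stellate myofibroblasts activated in culture; inactivation shown by regained lipid droplets. Readout: fraction of Hoechst-counted cells exceeding a per-plate Bodipy threshold, duplicate wells, each plate with DMSO negative and nortriptyline positive controls. Hits: control-normalized score beyond the plate's top-tenth-percentile nortriptyline wells, or among its three best wells. Final well concentrations unstated.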", "data": [{"smiles": "N#CC[C@H](C1CCCC1)n1cc(-c2ncnc3[nH]ccc23)cn1", "note": "[S-Ruxolitinib]", "values": [{"measurement": "percent Bodipy-positive cells", "setting": "[1]", "result": "4.15 ± 1", "unit": "%"}, {"measurement": "percent Bodipy-positive cells", "setting": "[2]", "result": "6.47 ± 1.8", "unit": "%"}, {"measurement": "percent Bodipy-positive cells", "setting": "[3]", "result": "2.54 ± 0.87", "unit": "%"}, {"measurement": "percent Bodipy-positive cells", "setting": "[4]", "result": "8.33 ± 3.9", "unit": "%"}]}, {"smiles": "COc1cc(CNC(=O)CCCCCCC(C)C)ccc1O", "note": "[Dihydrocapsaicin]", "values": [{"measurement": "percent Bodipy-positive cells", "setting": "[5]", "result": "14.1 ± 5.3", "unit": "%"}, {"measurement": "percent Bodipy-positive cells", "setting": "[4]", "result": "64.8 ± 13", "unit": "%"}]}, {"smiles": "O=C1O[C@H]([C@@H](O)CO)C(O)=C1O", "note": "[Vitamin C]", "values": [{"measurement": "percent Bodipy-positive cells", "setting": "[6]", "result": "6.1 ± 0.36", "unit": "%"}, {"measurement": "percent Bodipy-positive cells", "setting": "[4]", "result": "18.9 ± 7.2", "unit": "%"}]}, {"smiles": "O=C1O[C@H]([C@@H](O)CO)C(O)=C1O", "note": "[Ascorbic acid]", "values": [{"measurement": "percent Bodipy-positive cells", "result": "29.6 ± 2.2", "unit": "%"}, {"measurement": "percent Bodipy-positive cells", "setting": "[4]", "result": "32.4 ± 1.2", "unit": "%"}]}, {"smiles": "Clc1ccc(C(c2ccccc2Cl)C(Cl)Cl)cc1", "note": "(stereo not given) [1-(2-Chlorophenyl)-1-(4-chlorophenyl)-2,2-dichloroethane]", "values": [{"measurement": "percent Bodipy-positive cells", "setting": "[4]", "result": "60.1 ± 1.5", "unit": "%"}]}, {"smiles": "Clc1ccc(C(c2ccccc2Cl)C(Cl)Cl)cc1", "note": "(stereo not given) [Mitotane]", "values": [{"measurement": "percent Bodipy-positive cells", "setting": "[6]", "result": "13.7 ± 3.7", "unit": "%"}, {"measurement": "percent Bodipy-positive cells", "setting": "library stock concentration: 6.2 mM", "result": "18.2 ± 9.2", "unit": "%"}, {"measurement": "percent Bodipy-positive cells", "setting": "[4]", "result": "59.1% and 44.7%"}]}, {"smiles": "CCCCC/C=C\\C/C=C\\C/C=C\\CCCCC(=O)O", "note": "[.gamma.-Linolenic Acid]", "values": [{"measurement": "percent Bodipy-positive cells", "setting": "[5]", "result": "10.6 ± 1.2", "unit": "%"}]}, {"smiles": "CCCCC/C=C\\C/C=C\\C/C=C\\CCCCC(=O)O", "note": "[Gamma-linolenic acid (18:3 n-6)]", "values": [{"measurement": "percent Bodipy-positive cells", "setting": "[5]", "result": "7.06 ± 2.2", "unit": "%"}]}, {"smiles": "CCn1c2ccccc2c2cc(CNC)ccc21.Cl", "values": [{"measurement": "percent Bodipy-positive cells", "setting": "[4]", "result": "91.6 ± 1.3", "unit": "%"}]}, {"smiles": "Cc1cccc(C)c1OCC(=O)N[C@@H](Cc1ccccc1)[C@@H](O)C[C@H](Cc1ccccc1)NC(=O)[C@H](C(C)C)N1CCCNC1=O", "note": "[Lopinavir]", "values": [{"measurement": "percent Bodipy-positive cells", "setting": "[6]", "result": "4.64 ± 3.5", "unit": "%"}, {"measurement": "percent Bodipy-positive cells", "setting": "[4]", "result": "11.5 ± 6.1", "unit": "%"}]}, {"smiles": "CC(C)NCC(O)COc1cccc2ccccc12.Cl", "note": "(stereo not given)", "values": [{"measurement": "percent Bodipy-positive cells", "setting": "[4]", "result": "84.6 ± 2.1", "unit": "%"}]}, {"smiles": "CC[N+](C)(CC)CCC[n+]1c(-c2ccccc2)c2cc(N)ccc2c2ccc(N)cc21", "note": "[Propidium iodide]", "values": [{"measurement": "percent Bodipy-positive cells", "result": "7 ± 0.43", "unit": "%"}, {"measurement": "percent Bodipy-positive cells", "setting": "library stock concentration: 7.5 mM", "result": "12.1 ± 5", "unit": "%"}]}, {"smiles": "O=C(O)c1ccccc1Nc1cccc(C(F)(F)F)c1", "note": "[Flufenamic acid]", "values": [{"measurement": "percent Bodipy-positive cells", "result": "25.2 ± 7.8", "unit": "%"}, {"measurement": "percent Bodipy-positive cells", "setting": "[6]", "result": "9.39 ± 0.87", "unit": "%"}, {"measurement": "percent Bodipy-positive cells", "setting": "library stock concentration: 7.1 mM", "result": "7.81% and 18.8%"}, {"measurement": "percent Bodipy-positive cells", "setting": "[4]", "result": "25.7% and 36.5%"}, {"measurement": "percent Bodipy-positive cells", "setting": "library stock concentration: 17.8 mM", "result": "9.55 ± 9.4", "unit": "%"}]}, {"smiles": "OCCc1ccccc1", "note": "[Phenylethyl alcohol]", "values": [{"measurement": "percent Bodipy-positive cells", "setting": "library stock concentration: 16.4 mM", "result": "20.2 ± 14", "unit": "%"}]}, {"smiles": "O=C(O)Cn1nnc(-c2cc(N3CCC(Oc4cc(F)ccc4Br)CC3)no2)n1", "values": [{"measurement": "percent Bodipy-positive cells", "setting": "[6]", "result": "8.08 ± 5.3", "unit": "%"}, {"measurement": "percent Bodipy-positive cells", "setting": "[4]", "result": "13.9 ± 3", "unit": "%"}]}, {"smiles": "O=C(c1ccc(F)cc1)C1CCN(CCn2c(=S)[nH]c3ccccc3c2=O)CC1", "note": "[Altanserin hydrochloride]", "values": [{"measurement": "percent Bodipy-positive cells", "setting": "[4]", "result": "53.8 ± 22", "unit": "%"}]}, {"smiles": "O=C(c1ccc(F)cc1)C1CCN(CCn2c(=S)[nH]c3ccccc3c2=O)CC1", "note": "[Altanserin]", "values": [{"measurement": "percent Bodipy-positive cells", "setting": "[4]", "result": "44.6 ± 6.8", "unit": "%"}]}, {"smiles": "CC(=O)Nc1ccc(S(=O)(=O)c2ccc(NC(C)=O)cc2)cc1", "note": "[Acedapsone]", "values": [{"measurement": "percent Bodipy-positive cells", "setting": "library stock concentration: 6 mM", "result": "22 ± 4.7", "unit": "%"}]}, {"smiles": "CC(C)c1cc(-c2n[nH]c(=O)n2-c2ccc3c(ccn3C)c2)c(O)cc1O", "note": "[Ganetespib]", "values": [{"measurement": "percent Bodipy-positive cells", "setting": "[3]", "result": "64 ± 3.9", "unit": "%"}, {"measurement": "percent Bodipy-positive cells", "setting": "[4]", "result": "73.5 ± 7.4", "unit": "%"}]}, {"smiles": "c1ccc(-c2nn3c(c2-c2ccnc4cc(OCCN5CCOCC5)ccc24)CCC3)nc1", "values": [{"measurement": "percent Bodipy-positive cells", "setting": "[1]", "result": "11.4 ± 0.74", "unit": "%"}, {"measurement": "percent Bodipy-positive cells", "setting": "[2]", "result": "9.23 ± 2.5", "unit": "%"}, {"measurement": "percent Bodipy-positive cells", "setting": "[3]", "result": "8.37 ± 0.89", "unit": "%"}, {"measurement": "percent Bodipy-positive cells", "setting": "[4]", "result": "10.8 ± 9.7", "unit": "%"}]}, {"smiles": "O=C1Nc2ccc(Cl)cc2[C@@](C#CC2CC2)(C(F)(F)F)O1", "note": "[Efavirenz]", "values": [{"measurement": "percent Bodipy-positive cells", "setting": "library stock concentration: 6.3 mM", "result": "12.9 ± 5.7", "unit": "%"}]}, {"smiles": "c1ccc2sc(N3CCN(Cc4ccc5c(c4)OCO5)CC3)nc2c1", "note": "[2-[1-(4-Piperonyl)piperazinyl]benzothiazole]", "values": [{"measurement": "percent Bodipy-positive cells", "setting": "[4]", "result": "7.74 ± 2.2", "unit": "%"}]}, {"smiles": "Nc1ccc(C(=O)O)c(O)c1", "note": "[4-aminosalicylic acid]", "values": [{"measurement": "percent Bodipy-positive cells", "setting": "library stock concentration: 13.1 mM", "result": "6.58 ± 3.1", "unit": "%"}]}, {"smiles": "Nc1ccc(C(=O)O)c(O)c1", "note": "[Sodium 4-Aminosalicylate]", "values": [{"measurement": "percent Bodipy-positive cells", "setting": "[6]", "result": "11.2 ± 0.94", "unit": "%"}, {"measurement": "percent Bodipy-positive cells", "setting": "[4]", "result": "28.1 ± 4.9", "unit": "%"}]}, {"smiles": "Nc1ccc(C(=O)O)c(O)c1", "note": "[Aminosalicylate sodium]", "values": [{"measurement": "percent Bodipy-positive cells", "setting": "[4]", "result": "8.59 ± 2.6", "unit": "%"}]}, {"smiles": "COc1cc(CCc2cc(NC(=O)c3ccc(N4CC(C)NC(C)C4)cc3)n[nH]2)cc(OC)c1", "note": "(stereo not given)", "values": [{"measurement": "percent Bodipy-positive cells", "setting": "[1]", "result": "6.12 ± 0.23", "unit": "%"}, {"measurement": "percent Bodipy-positive cells", "setting": "[2]", "result": "15.5 ± 3.7", "unit": "%"}, {"measurement": "percent Bodipy-positive cells", "setting": "[3]", "result": "39.9 ± 9.3", "unit": "%"}, {"measurement": "percent Bodipy-positive cells", "setting": "[6]", "result": "74.42 ± 0.53", "unit": "%"}, {"measurement": "percent Bodipy-positive cells", "setting": "[4]", "result": "92.8 ± 5.3", "unit": "%"}]}, {"smiles": "C[C@@H]1CC[C@@]2(OC1)O[C@H]1C[C@H]3[C@@H]4CC=C5C[C@@H](O)CC[C@]5(C)[C@H]4CC[C@]3(C)[C@H]1[C@@H]2C", "note": "[Diosgenin]", "values": [{"measurement": "percent Bodipy-positive cells", "setting": "[4]", "result": "31 ± 10", "unit": "%"}]}, {"smiles": "CNCc1ccc(C)c(NC(=O)c2ccc(Nc3nc(-c4ccccc4)c4ccccc4n3)cc2)c1", "values": [{"measurement": "percent Bodipy-positive cells", "setting": "[4]", "result": "97.8 ± 1.1", "unit": "%"}]}, {"smiles": "Nc1nc(/C(=C/CC(=O)O)C(=O)N[C@@H]2C(=O)N3C(C(=O)O)=CCS[C@H]23)cs1", "note": "[Ceftibuten]", "values": [{"measurement": "percent Bodipy-positive cells", "setting": "library stock concentration: 4.9 mM", "result": "14.7 ± 12", "unit": "%"}, {"measurement": "percent Bodipy-positive cells", "setting": "[4]", "result": "37.2 ± 2.1", "unit": "%"}]}, {"smiles": "C=CCN1CCc2cc(O)c(O)cc2C(c2ccccc2)C1", "note": "(stereo not given)", "values": [{"measurement": "percent Bodipy-positive cells", "setting": "[4]", "result": "28.3% and 9.62%"}]}, {"smiles": "O=C(NCCCCCCNC(=O)ON=C1CCCCC1)ON=C1CCCCC1", "values": [{"measurement": "percent Bodipy-positive cells", "setting": "[4]", "result": "11.5 ± 0.72", "unit": "%"}, {"measurement": "percent Bodipy-positive cells", "setting": "library stock concentration: 12.7 mM", "result": "21.7 ± 2.2", "unit": "%"}]}, {"smiles": "CC(C)[C@H](O)C(=O)N[C@@H](C)C(=O)N[C@@H]1C(=O)N(C)CCc2ccccc21", "values": [{"measurement": "percent Bodipy-positive cells", "setting": "[6]", "result": "6.94 ± 0.36", "unit": "%"}, {"measurement": "percent Bodipy-positive cells", "setting": "[4]", "result": "7.23 ± 1.3", "unit": "%"}]}, {"smiles": "Cc1[nH]nc2ccc(-c3cncc(OC[C@@H](N)Cc4ccccc4)c3)cc12", "values": [{"measurement": "percent Bodipy-positive cells", "setting": "[4]", "result": "99.57 ± 0.6", "unit": "%"}]}, {"smiles": "CN1CCN(CCCN2c3ccccc3Sc3ccc(C(F)(F)F)cc32)CC1.Cl.Cl", "note": "[Trifluoperazine dihydrochloride]", "values": [{"measurement": "percent Bodipy-positive cells", "setting": "[4]", "result": "92.7 ± 2.4", "unit": "%"}]}, {"smiles": "Cc1c(S(=O)(=O)O)oc2c1C(=O)C(=O)c1c-2ccc2c1CCCC2(C)C", "note": "[Tanshinone iia sulfonate sodium]", "values": [{"measurement": "percent Bodipy-positive cells", "setting": "[4]", "result": "31.5 ± 3.2", "unit": "%"}]}, {"smiles": "CC(C)NC[C@H](O)COc1cccc2ccccc12.Cl", "values": [{"measurement": "percent Bodipy-positive cells", "setting": "library stock concentration: 16.9 mM", "result": "88.9 ± 1.9", "unit": "%"}]}, {"smiles": "NCCCS(=O)(=O)O", "note": "[3-aminopropanesulphonic acid]", "values": [{"measurement": "percent Bodipy-positive cells", "setting": "[4]", "result": "22.5 ± 1.1", "unit": "%"}]}, {"smiles": "NCCCS(=O)(=O)O", "note": "[3-Amino-1-propanesulfonic acid sodium]", "values": [{"measurement": "percent Bodipy-positive cells", "setting": "[4]", "result": "25.5 ± 3.8", "unit": "%"}]}]}
